From patent CN1510052A
No constants are given. Whether binding was seen depends on the method and setting. Some binding calls cover weakened binding; strength is not graded here.

By UniProt entry, the sequences of proteins in these tests, tags left out. Residues count along the entry.
UniProt P01375, residues 77-233: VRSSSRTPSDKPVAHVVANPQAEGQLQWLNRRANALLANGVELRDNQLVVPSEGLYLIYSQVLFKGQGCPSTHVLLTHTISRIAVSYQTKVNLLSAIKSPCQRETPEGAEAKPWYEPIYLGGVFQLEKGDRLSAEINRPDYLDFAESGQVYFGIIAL

Tests used:
[1] = target: 重组人TNF(rhTNF)抗原 (human) (UniProt P01375); experiment: Western blot with soluble scFv from periplasmic extract
[2] = target: 重组人TNF(rhTNF)抗原 (human) (UniProt P01375); experiment: phage ELISA: rhTNF coated on plate, scFv displayed on phage, HRP anti-M13 detection

binding [1]: binds
binding [2]: binds
B1: 克隆2 人源性单链抗体(scFv) (scFv)
scFv: MANVQLVQSGAEVKKPGESLKISCKGSGYSFTSYWIGWVRQMPGKGLEWMGIIYPGDSDTRYSPSFQGQVTISADKSISTAYLQWSSLKASDTAMYYCASHGWGMDVWGQGTLVTVSSGGGGSGGGGSGGGGSAAVLTQPSSVSGAPGQRVTISCTGSSSNIGAGYDVHWYQQLPGTAPKLLIYGNSNRPSGVPDRFSGSKSGTSASLAITGLAAEDEADYYCQSYDSSLSGSVFGGGTKLTVL
